The supplement of paper PMC7666118
This is one part of the list.

Protein sequences, listed by entry. Tags and fused reporters are not part of them. Lines headed by an entry give the natural chain unless they say otherwise; changes in a name come on top.
UniProt Q8NDI1: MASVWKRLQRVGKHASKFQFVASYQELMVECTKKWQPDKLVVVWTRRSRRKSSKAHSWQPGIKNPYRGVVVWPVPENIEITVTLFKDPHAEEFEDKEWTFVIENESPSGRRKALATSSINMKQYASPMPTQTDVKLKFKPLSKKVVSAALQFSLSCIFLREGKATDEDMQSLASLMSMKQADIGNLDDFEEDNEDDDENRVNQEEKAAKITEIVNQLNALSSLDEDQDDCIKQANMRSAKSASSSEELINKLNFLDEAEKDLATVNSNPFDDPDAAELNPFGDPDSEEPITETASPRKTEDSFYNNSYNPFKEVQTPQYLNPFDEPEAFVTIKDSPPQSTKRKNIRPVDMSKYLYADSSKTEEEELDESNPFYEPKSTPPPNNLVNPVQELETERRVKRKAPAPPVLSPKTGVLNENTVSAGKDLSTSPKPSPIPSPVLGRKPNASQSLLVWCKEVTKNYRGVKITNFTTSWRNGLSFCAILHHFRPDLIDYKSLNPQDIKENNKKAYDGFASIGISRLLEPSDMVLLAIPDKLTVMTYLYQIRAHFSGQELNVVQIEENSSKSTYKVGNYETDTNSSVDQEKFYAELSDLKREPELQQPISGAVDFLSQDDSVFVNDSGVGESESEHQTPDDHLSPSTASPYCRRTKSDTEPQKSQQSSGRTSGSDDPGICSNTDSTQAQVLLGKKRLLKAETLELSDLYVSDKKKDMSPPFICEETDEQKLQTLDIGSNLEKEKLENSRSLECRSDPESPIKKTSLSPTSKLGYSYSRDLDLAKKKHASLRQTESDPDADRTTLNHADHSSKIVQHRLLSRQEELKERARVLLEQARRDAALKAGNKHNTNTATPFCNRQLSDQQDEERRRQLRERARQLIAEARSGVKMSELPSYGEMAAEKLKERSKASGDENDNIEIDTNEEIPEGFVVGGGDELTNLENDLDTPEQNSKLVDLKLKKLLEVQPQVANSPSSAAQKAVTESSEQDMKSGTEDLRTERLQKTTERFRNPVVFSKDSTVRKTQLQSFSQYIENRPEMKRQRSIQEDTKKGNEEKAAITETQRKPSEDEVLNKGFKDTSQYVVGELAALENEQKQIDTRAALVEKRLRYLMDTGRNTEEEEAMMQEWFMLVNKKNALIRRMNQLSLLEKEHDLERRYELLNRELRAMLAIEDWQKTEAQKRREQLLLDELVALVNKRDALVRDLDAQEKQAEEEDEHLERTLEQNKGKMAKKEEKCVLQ
UniProt Q9BQ95: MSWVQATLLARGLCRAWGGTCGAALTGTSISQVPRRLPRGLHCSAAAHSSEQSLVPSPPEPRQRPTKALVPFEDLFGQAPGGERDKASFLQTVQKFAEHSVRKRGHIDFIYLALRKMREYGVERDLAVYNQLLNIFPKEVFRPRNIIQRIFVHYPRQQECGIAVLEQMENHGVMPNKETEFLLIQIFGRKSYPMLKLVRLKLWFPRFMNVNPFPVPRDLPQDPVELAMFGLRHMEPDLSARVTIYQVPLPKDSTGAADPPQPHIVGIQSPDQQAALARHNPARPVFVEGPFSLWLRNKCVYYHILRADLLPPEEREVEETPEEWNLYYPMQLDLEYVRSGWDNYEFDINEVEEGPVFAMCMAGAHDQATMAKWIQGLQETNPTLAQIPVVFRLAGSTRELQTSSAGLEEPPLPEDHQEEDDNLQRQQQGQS
UniProt Q13542: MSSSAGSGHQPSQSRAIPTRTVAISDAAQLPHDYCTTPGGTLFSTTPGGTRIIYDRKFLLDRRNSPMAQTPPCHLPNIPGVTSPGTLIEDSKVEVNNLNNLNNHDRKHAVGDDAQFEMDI
UniProt Q9Y282: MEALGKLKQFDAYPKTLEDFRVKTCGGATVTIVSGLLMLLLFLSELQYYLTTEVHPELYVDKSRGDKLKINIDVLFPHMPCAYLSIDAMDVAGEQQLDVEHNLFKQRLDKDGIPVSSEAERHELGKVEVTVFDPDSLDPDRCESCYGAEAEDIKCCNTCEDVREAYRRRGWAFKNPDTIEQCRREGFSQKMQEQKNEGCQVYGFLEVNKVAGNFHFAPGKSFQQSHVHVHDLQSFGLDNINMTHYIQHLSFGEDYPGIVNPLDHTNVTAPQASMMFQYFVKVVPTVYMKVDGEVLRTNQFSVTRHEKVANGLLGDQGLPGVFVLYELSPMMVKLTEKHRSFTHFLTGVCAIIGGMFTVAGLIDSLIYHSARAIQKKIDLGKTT
UniProt P60981: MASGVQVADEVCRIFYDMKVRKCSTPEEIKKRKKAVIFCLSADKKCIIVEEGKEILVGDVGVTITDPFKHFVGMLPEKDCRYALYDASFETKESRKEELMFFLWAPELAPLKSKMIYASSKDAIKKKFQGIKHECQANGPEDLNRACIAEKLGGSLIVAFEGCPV
UniProt Q8IWF6: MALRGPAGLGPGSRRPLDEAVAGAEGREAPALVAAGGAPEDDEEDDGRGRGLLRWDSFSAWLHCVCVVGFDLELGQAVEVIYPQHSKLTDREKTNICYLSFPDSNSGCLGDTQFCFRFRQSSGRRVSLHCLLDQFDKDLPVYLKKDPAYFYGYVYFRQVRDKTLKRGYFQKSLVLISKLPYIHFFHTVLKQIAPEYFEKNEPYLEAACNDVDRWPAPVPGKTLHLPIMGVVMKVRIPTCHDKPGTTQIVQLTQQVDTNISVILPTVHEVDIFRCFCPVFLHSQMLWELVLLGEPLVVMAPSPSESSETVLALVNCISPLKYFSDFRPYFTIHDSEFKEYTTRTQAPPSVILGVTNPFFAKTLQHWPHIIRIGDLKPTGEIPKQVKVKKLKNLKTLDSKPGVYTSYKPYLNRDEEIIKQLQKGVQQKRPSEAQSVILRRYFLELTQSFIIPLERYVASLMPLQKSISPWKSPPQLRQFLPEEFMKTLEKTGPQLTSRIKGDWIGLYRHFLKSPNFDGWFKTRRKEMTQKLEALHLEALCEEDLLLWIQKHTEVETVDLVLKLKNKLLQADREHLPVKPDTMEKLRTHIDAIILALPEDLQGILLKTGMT
UniProt Q6P1R4: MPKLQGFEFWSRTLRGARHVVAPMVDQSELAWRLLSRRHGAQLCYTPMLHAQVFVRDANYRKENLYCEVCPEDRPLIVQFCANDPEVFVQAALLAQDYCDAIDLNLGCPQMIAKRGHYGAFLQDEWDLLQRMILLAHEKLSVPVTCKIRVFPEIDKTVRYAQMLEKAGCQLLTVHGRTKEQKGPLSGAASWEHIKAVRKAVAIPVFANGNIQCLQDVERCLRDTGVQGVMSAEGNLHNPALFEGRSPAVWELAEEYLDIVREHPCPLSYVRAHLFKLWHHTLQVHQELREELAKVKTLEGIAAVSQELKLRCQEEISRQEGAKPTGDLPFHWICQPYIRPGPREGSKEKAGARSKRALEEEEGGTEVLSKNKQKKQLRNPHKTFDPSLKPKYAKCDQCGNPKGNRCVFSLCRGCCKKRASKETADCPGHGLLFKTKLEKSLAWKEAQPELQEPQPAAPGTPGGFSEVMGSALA
UniProt P33316: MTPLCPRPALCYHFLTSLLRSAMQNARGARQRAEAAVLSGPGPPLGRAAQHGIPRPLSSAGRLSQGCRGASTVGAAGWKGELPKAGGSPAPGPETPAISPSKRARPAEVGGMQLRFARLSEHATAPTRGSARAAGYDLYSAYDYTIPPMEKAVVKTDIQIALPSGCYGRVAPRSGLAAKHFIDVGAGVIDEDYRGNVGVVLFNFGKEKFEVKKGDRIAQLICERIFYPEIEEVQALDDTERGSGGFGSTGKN
UniProt P68104, whole entry: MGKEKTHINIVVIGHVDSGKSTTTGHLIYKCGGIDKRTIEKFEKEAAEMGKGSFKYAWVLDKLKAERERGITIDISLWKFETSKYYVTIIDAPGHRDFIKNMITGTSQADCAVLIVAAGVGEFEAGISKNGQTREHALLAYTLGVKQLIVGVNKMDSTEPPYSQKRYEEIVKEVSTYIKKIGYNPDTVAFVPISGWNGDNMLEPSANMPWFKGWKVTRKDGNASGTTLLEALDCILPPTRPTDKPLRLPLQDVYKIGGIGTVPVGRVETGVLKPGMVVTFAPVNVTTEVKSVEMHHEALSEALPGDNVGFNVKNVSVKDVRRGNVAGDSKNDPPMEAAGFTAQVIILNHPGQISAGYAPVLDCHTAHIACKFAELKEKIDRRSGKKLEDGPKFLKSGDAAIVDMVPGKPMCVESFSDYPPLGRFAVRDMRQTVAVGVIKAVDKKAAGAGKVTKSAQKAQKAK
UniProt Q9BXX0: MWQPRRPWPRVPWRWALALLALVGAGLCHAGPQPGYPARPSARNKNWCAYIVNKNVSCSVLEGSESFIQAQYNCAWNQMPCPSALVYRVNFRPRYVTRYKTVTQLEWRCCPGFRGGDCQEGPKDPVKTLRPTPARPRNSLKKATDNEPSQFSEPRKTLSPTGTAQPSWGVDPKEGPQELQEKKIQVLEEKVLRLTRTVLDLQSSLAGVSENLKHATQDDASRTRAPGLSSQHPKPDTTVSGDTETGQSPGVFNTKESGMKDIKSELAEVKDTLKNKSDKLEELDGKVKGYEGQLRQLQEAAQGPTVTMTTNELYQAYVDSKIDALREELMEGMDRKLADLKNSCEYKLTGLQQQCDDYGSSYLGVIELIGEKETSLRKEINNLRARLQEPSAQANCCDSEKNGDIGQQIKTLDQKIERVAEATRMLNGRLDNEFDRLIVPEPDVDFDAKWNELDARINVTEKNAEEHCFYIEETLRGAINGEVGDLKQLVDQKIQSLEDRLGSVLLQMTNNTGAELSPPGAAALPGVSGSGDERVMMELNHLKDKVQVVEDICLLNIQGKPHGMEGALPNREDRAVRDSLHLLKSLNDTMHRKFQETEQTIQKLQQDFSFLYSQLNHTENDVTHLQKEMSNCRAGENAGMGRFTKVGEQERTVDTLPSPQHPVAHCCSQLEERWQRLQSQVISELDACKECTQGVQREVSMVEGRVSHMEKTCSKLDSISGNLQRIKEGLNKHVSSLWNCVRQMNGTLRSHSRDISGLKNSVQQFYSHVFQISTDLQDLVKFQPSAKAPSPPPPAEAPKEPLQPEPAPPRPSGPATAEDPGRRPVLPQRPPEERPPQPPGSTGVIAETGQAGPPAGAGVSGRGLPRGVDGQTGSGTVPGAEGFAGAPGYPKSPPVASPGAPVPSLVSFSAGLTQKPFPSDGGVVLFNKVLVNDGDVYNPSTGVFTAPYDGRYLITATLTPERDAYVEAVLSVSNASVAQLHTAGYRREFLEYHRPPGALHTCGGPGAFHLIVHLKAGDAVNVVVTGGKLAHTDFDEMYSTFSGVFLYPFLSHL
UniProt Q5RI15: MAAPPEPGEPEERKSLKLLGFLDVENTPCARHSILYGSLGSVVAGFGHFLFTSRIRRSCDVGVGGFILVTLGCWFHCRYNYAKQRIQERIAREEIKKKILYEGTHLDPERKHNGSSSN
UniProt P41567, whole entry: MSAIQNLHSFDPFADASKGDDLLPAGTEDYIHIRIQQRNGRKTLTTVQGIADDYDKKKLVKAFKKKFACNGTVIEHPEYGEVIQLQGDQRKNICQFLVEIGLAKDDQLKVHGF
UniProt O60739, whole entry: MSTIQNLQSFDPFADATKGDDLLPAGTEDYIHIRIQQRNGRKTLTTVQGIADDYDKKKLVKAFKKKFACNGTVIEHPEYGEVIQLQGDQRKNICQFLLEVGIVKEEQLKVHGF
UniProt Q15029: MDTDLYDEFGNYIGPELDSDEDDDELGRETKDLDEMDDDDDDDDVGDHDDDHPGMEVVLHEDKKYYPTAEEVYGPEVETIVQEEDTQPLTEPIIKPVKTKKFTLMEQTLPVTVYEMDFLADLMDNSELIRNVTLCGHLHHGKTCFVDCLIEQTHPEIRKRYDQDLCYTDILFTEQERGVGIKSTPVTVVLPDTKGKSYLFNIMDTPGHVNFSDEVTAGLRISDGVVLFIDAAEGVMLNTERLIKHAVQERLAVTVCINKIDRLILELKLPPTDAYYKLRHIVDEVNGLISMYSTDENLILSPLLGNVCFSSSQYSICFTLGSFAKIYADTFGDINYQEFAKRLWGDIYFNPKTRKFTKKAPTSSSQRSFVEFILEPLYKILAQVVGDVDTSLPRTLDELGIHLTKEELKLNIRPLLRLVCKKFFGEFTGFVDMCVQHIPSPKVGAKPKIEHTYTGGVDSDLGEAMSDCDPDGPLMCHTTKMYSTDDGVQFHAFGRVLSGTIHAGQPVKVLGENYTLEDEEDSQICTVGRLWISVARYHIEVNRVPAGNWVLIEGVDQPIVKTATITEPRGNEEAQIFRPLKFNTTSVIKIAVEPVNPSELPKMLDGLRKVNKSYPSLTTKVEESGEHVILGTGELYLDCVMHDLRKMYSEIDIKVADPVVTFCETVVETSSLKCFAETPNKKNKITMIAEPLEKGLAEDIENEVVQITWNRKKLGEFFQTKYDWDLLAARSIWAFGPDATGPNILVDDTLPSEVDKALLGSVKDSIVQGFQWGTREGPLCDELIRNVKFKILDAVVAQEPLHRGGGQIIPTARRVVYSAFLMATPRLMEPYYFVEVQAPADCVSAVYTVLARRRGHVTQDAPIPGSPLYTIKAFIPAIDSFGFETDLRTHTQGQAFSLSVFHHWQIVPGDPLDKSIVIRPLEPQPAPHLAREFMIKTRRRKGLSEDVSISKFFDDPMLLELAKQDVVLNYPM

The targets below were run with COc1ccc(Cn2ccc3cc(C)c(C(=O)NO)cc32)cc1 (assay: dose-dependent thermal stabilisation call (2D-TPP, DLPTP, 10% FDR) (binary (1 = stabilised)); higher = stabilised by the compound). Conditions: system: HL-60 intact cells; concentration range 0.04-10 µM.
Experimental: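 2D thermal proteome profiling in intact HL-60 cells treated with BRD-3811 (0, 0.04, 0.29, 2, 10 uM) for 90 min at 37 C, then heated 3 min at one of 12 temperatures (42-63.9 C). Soluble protein was quantified by TMT10 MS. The value is the DLPTP call of the paper: dose-dependent thermal stabilisation over all temperatures at 10% FDR (F-test of a dose-response against a flat model); one experiment, one call per tested protein.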

Target | dose-dependent thermal stabilisation call
ETFA (UniProt P13804) | inactive: 0
EHBP1 (UniProt Q8NDI1) | inactive: 0
ECSIT (UniProt Q9BQ95) | inactive: 0
DTX3L (UniProt Q8TDB6) | inactive: 0
EIF2B3 (UniProt Q9NR50) | inactive: 0
DSG1 (UniProt Q02413) | inactive: 0
EIF4EBP2 (UniProt Q13542) | inactive: 0
ERGIC3 (UniProt Q9Y282) | inactive: 0
FAM158A (UniProt Q9Y3B6) | inactive: 0
EPDR1 (UniProt Q9UM22) | inactive: 0
EIF1AP1 | inactive: 0
EXOC3 (UniProt O60645) | inactive: 0
DSTN (UniProt P60981) | inactive: 0
FAM116A (UniProt Q8IWF6) | inactive: 0
EXOG (UniProt Q9Y2C4) | inactive: 0
DUS1L (UniProt Q6P1R4) | inactive: 0
ETV6 (UniProt P41212) | inactive: 0
DUT (UniProt P33316) | inactive: 0

Some of the entries so far, with tabs:
Target	dose-dependent thermal stabilisation call
EIF2B3 (UniProt Q9NR50)	inactive: 0
DSG1 (UniProt Q02413)	inactive: 0

(cont.)

Target | dose-dependent thermal stabilisation call
EDC4 (UniProt Q6P2E9) | inactive: 0
EEF1A1 (UniProt P68104) | inactive: 0
EIF3B (UniProt P55884) | inactive: 0
EMILIN2 (UniProt Q9BXX0) | inactive: 0
DTYMK (UniProt P23919) | inactive: 0
EXOC5 (UniProt O00471) | inactive: 0
FAM36A (UniProt Q5RI15) | inactive: 0
EIF1 (UniProt P41567) | inactive: 0
EZR (UniProt P15311) | inactive: 0
ETF1 (UniProt P62495) | inactive: 0
DYRK1A (UniProt Q13627) | inactive: 0
FAF1 (UniProt Q9UNN5) | inactive: 0
EIF1B (UniProt O60739) | inactive: 0
EIF2C3 (UniProt Q9H9G7) | inactive: 0
FAM29A (UniProt Q7Z4H7) | inactive: 0
DST (UniProt Q03001) | inactive: 0
FAH (UniProt P16930) | inactive: 0
EFTUD2 (UniProt Q15029) | active: 1
